In the supplement of paper PMC8007513:
The other results are listed elsewhere or left out. Repeats are few or missing, and single values can be far off.

test system: Saccharomyces cerevisiae BY4743; assay: growth (OD600) relative to untreated control; higher = less growth inhibition; settings: compound concentration: 133 uM; 20 h
Protocol: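 NMCCC compounds (133 uM, no IPBC) tested alone against Saccharomyces cerevisiae BY4743 in YPD, 96-well plates, starting OD600 ~0.1. Growth was read as OD600 at 20 h and expressed as % of the untreated control. Single pass.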

Row | SMILES | growth
1 | O=C(COCC(F)(F)F)NC(c1ccccc1)c1cc2ccccc2o1 (configuration not stated) | 103%
2 | CCOc1cccc(OCC)c2c(C)[nH+]c(C)c1-2 | 72.3%
3 | Cc1nc2cc(NC(C)C(=O)NCC(F)(F)F)ccc2o1 (configuration not stated) | 99.6%
4 | O=C(CN1\N=N/C2=CC=CC=C2C1=O)NC3(CCCCC3)C#N | 96.9%
5 | CCOC(=O)c1cc2n(n1)CC(C)(C(=O)NCCC(C)C)N(c1ccc(F)cc1)C2=O (configuration not stated) | 87.7%
6 | CC(=O)c1c[nH]c(C(=O)OCC(=O)N2CC(=O)Nc3ccccc32)c1 | 93.6%
7 | O=C(c1ccco1)N1CCN(C(=O)c2cccnc2SC(F)F)CC1 | 92%
